In publication PMC10367261 one finds binding data, which are given here for one substance.

By UniProt entry, the sequences of proteins in these tests, tags left out. Where a name states a change or a piece, a line headed by the entry shows the natural chain unless it says otherwise.
UniProt Q99LG0: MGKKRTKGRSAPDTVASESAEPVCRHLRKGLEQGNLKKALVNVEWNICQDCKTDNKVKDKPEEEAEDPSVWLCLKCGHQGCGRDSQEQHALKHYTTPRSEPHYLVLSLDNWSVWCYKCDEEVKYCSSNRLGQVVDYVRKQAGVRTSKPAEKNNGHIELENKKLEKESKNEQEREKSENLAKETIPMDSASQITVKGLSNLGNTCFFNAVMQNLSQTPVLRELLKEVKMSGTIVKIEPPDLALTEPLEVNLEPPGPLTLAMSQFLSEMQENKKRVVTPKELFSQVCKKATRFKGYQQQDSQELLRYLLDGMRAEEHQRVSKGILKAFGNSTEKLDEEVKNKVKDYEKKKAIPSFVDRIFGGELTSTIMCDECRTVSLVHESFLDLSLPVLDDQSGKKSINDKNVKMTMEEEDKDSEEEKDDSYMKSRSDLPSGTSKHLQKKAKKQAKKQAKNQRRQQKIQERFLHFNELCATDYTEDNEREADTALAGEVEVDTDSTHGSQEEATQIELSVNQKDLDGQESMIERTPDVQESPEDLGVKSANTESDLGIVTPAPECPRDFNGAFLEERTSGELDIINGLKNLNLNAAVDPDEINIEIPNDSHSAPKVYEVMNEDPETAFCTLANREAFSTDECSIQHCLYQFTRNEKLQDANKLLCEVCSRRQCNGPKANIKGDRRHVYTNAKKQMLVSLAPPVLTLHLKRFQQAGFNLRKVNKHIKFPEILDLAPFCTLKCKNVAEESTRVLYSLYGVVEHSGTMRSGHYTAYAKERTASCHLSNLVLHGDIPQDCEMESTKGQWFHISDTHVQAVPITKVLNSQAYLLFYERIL
UniProt Q8K1M6: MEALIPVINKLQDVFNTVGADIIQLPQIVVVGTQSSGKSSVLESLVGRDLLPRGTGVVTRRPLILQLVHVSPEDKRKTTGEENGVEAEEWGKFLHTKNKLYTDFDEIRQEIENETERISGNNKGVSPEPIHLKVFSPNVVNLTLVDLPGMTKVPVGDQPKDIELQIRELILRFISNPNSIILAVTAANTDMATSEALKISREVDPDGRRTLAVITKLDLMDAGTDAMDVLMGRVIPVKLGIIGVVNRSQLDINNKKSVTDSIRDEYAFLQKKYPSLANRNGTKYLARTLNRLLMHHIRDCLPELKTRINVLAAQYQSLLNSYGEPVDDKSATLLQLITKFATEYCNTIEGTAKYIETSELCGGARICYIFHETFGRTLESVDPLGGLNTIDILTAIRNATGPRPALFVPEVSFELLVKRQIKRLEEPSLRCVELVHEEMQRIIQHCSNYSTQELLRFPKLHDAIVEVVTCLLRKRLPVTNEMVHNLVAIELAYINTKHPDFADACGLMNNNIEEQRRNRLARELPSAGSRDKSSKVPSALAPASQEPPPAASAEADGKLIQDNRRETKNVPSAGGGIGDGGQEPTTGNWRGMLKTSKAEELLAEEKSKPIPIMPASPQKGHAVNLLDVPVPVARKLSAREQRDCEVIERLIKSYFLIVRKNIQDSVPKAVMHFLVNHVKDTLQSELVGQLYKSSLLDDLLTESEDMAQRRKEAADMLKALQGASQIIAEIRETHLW

Results are given in words; binding and its absence hold for the method and conditions named. Binding seen in cells or lysates may run through a third protein. Some binding calls cover weakened binding; strength is not graded here.

The target of one assay is GST-tagged USP16 (UniProt Q99LG0). Description: pull-down; GST-tagged USP16 from E. coli immobilized to glutathione agarose (Pierce GST Pull-Down Kit), incubated with RAW264.7 or J774A.1 cell lysates; western blot; GST tag alone as negative control; only the target purified. (In general: Immunoblotting shows a protein as a band on a membrane.)
Assay [1] concerns the target Ubiquitin specific peptidase 16 (mouse (endogenous in RAW264.7 and J774A.1)) (UniProt Q99LG0). The experiment in a line: co-IP; lysates of RAW264.7 and J774A.1 macrophages in IP lysis buffer, anti-USP16 (1 ug) conjugated to Protein A/G magnetic beads (Pierce Crosslink Magnetic co-IP Kit), 4 °C overnight; western blot; normal IgG as negative control.

Regarding “Dynamin-related protein 1 (from UniProt Q8K1M6 1-736)”, the binding result (in the assay with GST-tagged USP16; in assay [1]) was “binds” throughout.
